In paper doi:10.1101/2024.06.13.598799:
These are yes or no findings as the source states them, for the method shown. In cells and extracts the contact can be indirect. Sequences can lack the tags named with a protein.

Protein sequences, listed by entry. Tags and fused reporters are not part of them.
UniProt Q05609: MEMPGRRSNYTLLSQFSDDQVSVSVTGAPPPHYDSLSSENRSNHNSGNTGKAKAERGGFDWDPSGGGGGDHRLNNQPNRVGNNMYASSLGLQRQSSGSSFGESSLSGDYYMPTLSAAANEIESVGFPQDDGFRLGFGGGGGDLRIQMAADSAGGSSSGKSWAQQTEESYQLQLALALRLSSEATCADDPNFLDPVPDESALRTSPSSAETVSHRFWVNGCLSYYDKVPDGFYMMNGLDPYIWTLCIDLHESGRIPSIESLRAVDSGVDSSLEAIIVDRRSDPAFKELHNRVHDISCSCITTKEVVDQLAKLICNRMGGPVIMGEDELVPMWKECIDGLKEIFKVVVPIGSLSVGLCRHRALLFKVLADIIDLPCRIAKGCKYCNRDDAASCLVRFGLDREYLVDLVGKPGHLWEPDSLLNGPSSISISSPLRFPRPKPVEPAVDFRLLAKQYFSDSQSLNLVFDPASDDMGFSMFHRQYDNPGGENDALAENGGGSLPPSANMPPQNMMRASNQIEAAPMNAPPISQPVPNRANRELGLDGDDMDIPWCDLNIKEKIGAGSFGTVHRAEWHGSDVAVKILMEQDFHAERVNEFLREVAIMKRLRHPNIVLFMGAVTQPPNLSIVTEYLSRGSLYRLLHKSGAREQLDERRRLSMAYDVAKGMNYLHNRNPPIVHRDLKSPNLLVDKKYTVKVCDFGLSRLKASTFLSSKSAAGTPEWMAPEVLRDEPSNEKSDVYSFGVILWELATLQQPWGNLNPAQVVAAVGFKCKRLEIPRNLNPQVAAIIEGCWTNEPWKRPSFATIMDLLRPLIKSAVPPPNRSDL

Biological target: T1, EIN2-eYFP (ETHYLENE …2 fused to eYFP), expressed from EIN2p:EIN2-eYFP in ein2^W308* transgenic plants (Arabidopsis) (UniProt Q9S814)
T1 sequence: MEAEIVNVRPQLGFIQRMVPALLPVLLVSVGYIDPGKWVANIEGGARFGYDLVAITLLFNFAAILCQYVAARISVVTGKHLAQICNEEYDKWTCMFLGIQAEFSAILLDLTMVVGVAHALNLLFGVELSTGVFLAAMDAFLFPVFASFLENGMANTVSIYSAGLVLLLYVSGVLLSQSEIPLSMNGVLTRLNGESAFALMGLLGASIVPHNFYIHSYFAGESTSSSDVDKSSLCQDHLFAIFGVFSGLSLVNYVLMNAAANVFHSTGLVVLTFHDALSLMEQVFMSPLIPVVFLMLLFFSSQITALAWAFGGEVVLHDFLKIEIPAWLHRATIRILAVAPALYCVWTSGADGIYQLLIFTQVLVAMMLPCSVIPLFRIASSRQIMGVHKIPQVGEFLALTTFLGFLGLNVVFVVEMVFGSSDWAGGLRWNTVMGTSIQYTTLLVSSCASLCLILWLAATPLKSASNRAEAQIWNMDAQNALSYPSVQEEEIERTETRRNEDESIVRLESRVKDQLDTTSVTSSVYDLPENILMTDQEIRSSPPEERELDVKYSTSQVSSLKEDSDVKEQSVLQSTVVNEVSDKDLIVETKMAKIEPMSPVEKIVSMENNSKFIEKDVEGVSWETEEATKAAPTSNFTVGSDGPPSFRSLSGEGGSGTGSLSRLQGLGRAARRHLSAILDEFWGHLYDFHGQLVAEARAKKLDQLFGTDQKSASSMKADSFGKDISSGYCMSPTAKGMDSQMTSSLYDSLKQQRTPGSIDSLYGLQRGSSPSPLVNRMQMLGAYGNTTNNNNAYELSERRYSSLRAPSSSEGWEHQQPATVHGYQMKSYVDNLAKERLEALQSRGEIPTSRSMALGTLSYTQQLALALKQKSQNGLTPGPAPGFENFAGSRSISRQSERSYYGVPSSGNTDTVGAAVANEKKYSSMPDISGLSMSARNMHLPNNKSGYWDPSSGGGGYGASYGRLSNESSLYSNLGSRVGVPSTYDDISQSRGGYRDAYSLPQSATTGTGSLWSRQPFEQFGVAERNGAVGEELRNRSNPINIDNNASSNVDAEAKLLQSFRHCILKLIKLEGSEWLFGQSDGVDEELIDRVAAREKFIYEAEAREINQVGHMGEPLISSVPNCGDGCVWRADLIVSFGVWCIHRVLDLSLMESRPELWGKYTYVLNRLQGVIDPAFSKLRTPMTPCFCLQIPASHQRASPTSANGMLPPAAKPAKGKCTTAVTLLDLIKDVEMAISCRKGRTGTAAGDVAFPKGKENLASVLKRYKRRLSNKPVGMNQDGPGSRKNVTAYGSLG
Assay: co-IP

binding: no binding
Sequence: CONSTITUTIVE TRIPLE-RESPONSE1 (CTR1) (from UniProt Q05609 1-821)
